Results from article PMC9031500.
No constants are given. Whether binding was seen depends on the method and setting. In cells and extracts the contact can be indirect. Some results given as binding are weak or reduced against the parent protein; the word gives no strength.

Legend:
[1] = biological target: T1, silent mating type information regulation 2 homolog 1 (SIRT1) (mouse (endogenous in hypothalamus of B6SJL mice)) (UniProt Q923E4); experiment: condition: only in hypothalamus extracts of nontransgenic littermate controls; co-IP; hypothalamus protein extracts of nontransgenic littermate control mice at 90 and 120 days; precleared with normal mouse IgG and protein A/G agarose; IP with anti-SIRT1 or anti-orexin-prepro overnight at 4 °C; washed with RIPA buffer; western blot
T1 sequence: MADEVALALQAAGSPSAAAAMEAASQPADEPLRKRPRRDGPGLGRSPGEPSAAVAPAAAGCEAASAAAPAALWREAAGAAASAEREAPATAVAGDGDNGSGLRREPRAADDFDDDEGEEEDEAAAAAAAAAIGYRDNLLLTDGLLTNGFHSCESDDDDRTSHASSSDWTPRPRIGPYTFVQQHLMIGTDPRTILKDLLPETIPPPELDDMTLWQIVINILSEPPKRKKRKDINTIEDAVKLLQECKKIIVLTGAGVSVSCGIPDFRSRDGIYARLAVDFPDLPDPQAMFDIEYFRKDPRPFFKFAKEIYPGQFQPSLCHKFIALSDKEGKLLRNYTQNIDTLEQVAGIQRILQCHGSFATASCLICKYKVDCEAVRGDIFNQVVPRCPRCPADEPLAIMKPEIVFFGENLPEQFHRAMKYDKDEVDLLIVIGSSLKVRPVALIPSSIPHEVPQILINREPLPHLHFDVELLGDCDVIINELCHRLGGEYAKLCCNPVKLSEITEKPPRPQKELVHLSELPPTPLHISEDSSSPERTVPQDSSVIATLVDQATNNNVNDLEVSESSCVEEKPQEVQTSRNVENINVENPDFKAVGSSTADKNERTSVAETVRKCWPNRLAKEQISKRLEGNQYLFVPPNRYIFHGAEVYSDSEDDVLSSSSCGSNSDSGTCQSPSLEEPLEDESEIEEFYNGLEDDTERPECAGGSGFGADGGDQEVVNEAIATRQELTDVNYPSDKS

[2] = biological target: T1, silent mating type information regulation 2 homolog 1 (SIRT1) (mouse (endogenous in hypothalamus of B6SJL mice)); experiment: co-IP; hypothalamus protein extracts of SOD1G93A transgenic mice at 90 days (presymptomatic) and 120 days (symptomatic); precleared with normal mouse IgG and protein A/G agarose; IP with anti-SIRT1 or anti-orexin-prepro overnight at 4 °C; washed with RIPA buffer; western blot

B1: prepro-orexin (protein, UniProt O55241 33-130)
chain: QPLPDCCRQKTCSCRLYELLHGAGNHAAGILTLGKRRPGPPGLQGRLQRLLQANGNHAAGILTMGRRAGAELEPHPCSGRGCPTVTTTALAPRGGSGV
binding [1]: no binding
binding [2]: binds
